Test results taken from publication PMC5711802, “Conservation of folding and association within a family of spidroin N-terminal domains” (Scientific Reports, 2017).
No constants are given. Whether binding was seen depends on the method and setting. Some entries that bind do so weakly or less than the wild type.

T1: N-terminal domain (NTD) of major ampullate spidroin 1 (MaSp1) from Euprosthenops australis (Euprosthenops australis), Q05H60
T1 chain: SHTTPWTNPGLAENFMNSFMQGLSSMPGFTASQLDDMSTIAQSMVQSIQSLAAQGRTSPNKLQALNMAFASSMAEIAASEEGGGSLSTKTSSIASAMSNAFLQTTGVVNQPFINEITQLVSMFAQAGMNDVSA

B1: N-terminal domain (NTD) of major ampullate spidroin 1 (MaSp1) from Euprosthenops australis, Q05H60 24-156 (domain or fragment)
chain: SHTTPWTNPGLAENFMNSFMQGLSSMPGFTASQLDDMSTIAQSMVQSIQSLAAQGRTSPNKLQALNMAFASSMAEIAASEEGGGSLSTKTSSIASAMSNAFLQTTGVVNQPFINEITQLVSMFAQAGMNDVSA
B2: N-terminal domain (NTD) of major ampullate spidroin 1 (MaSp1) from Euprosthenops australis (domain or fragment, UniProt Q05H60 24-156)
chain: SHTTPWTNPGLAENFMNSFMQGLSSMPGFTASQLDDMSTIAQSMVQSIQSLAAQGRTSPNKLQALNMAFASSMAEIAASEEGGGSLSTKTSSIASAMSNAFLQTTGVVNQPFINEITQLVSMFAQAGMNDVSA

Tests used:
[1] = biological target: T1, N-terminal domain (NTD) of major …; experiment: steady-state tryptophan fluorescence against pH; 10 uM protein; 50 mM MOPS pH 6.4 to 8.2 and 50 mM MES pH 5.2 to 7.2, ionic strength 20 mM (KCl); 298 K; emission at 330 nm and wavelength of maximal emission; both purified; settings: remark: other sources report otherwise
[2] = biological target: N-terminal domain (NTD) of major ampullate spidroin 1 (MaSp1) from Euprosthenops australis (Euprosthenops australis) (UniProt Q05H60); experiment: condition: only 50 mM phosphate pH 7.0, ionic strength 200 mM (monomer conditions); SEC-MALS; monomer conditions: 50 mM phosphate pH 7.0, ionic strength 200 mM (KCl); 100 uL at 5 mg/mL on Superdex-75 HR10/300, 0.5 ml/min; both purified

Binder	binding [1]	binding [2]
B1	binds	
B2		no binding
